Experimental data reported in paper PMC7825114, “Studying GGDEF Domain in the Act: Minimize Conformational Frustration to Prevent Artefacts” (Life, 2021).
These are yes or no findings as the source states them, for the method shown.

Molecular target: YfiN GGDEF domain (PA1120-E232start) (P. aeruginosa) (UniProt Q9I4L5)
Experiment: crystal structure; X-ray structure of YfiN GGDEF with Mg2+ at 2.8 Å; 3 monomers in the asymmetric unit; interfaces of the crystal lattice analysed with the PISA server; both purified

binding: no binding
B1: YfiN GGDEF domain (PA1120-E232start) (domain or fragment, UniProt Q9I4L5 232-435)
chain: ESWQARLQDENASLAHQAHHDSLTSLPNRAFFEGRLSRALRDANEHREQLAVLFIDSDRFKEINDRLGHAAGDTVLVNIAMRIRGQLRESDLVARLGGDEFAVLLAPLASGADALRIADNIIASMQAPIRLSDGSTVSTSLTIGIALYPEHADTPAALLHDADMAMYIAKRQARGSRRLAELNDPRILQEEKEIDSATPEAPPK
